The supplement of paper PMC10849652
The other results are listed elsewhere or left out.

The chains behind the UniProt entries cited, without tags or fusion partners. Where a name states a change or a piece, a line headed by the entry shows the natural chain unless it says otherwise.
UniProt P43250, whole entry, looked up: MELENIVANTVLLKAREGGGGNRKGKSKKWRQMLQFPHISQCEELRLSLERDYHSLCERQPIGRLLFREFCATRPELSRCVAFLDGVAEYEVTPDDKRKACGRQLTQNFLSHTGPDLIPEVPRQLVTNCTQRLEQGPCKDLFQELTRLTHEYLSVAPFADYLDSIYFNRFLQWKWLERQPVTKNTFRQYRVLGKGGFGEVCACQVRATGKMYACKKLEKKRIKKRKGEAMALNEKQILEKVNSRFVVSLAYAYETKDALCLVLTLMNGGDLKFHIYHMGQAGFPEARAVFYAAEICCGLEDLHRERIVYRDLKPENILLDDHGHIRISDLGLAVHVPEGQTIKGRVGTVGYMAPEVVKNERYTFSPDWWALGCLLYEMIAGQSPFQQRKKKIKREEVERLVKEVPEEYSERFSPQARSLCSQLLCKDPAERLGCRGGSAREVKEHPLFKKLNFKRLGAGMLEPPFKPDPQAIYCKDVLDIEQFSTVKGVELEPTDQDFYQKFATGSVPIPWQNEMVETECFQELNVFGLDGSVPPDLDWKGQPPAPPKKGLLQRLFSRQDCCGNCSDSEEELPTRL
UniProt Q6IC98: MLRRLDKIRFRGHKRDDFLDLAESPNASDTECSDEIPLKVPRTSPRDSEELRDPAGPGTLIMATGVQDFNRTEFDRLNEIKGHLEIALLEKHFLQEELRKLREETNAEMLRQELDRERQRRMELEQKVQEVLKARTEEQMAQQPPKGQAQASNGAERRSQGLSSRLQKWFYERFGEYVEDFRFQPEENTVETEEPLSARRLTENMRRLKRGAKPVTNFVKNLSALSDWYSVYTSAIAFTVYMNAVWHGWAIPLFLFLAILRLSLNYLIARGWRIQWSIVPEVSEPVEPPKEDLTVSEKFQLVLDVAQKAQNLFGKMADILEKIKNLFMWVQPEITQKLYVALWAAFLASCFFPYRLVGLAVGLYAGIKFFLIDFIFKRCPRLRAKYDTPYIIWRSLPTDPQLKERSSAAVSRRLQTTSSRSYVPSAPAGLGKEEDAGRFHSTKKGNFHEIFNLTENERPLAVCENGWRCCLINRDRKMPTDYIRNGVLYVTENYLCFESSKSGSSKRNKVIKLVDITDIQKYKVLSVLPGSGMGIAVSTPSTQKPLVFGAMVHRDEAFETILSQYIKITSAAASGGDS
UniProt P51610: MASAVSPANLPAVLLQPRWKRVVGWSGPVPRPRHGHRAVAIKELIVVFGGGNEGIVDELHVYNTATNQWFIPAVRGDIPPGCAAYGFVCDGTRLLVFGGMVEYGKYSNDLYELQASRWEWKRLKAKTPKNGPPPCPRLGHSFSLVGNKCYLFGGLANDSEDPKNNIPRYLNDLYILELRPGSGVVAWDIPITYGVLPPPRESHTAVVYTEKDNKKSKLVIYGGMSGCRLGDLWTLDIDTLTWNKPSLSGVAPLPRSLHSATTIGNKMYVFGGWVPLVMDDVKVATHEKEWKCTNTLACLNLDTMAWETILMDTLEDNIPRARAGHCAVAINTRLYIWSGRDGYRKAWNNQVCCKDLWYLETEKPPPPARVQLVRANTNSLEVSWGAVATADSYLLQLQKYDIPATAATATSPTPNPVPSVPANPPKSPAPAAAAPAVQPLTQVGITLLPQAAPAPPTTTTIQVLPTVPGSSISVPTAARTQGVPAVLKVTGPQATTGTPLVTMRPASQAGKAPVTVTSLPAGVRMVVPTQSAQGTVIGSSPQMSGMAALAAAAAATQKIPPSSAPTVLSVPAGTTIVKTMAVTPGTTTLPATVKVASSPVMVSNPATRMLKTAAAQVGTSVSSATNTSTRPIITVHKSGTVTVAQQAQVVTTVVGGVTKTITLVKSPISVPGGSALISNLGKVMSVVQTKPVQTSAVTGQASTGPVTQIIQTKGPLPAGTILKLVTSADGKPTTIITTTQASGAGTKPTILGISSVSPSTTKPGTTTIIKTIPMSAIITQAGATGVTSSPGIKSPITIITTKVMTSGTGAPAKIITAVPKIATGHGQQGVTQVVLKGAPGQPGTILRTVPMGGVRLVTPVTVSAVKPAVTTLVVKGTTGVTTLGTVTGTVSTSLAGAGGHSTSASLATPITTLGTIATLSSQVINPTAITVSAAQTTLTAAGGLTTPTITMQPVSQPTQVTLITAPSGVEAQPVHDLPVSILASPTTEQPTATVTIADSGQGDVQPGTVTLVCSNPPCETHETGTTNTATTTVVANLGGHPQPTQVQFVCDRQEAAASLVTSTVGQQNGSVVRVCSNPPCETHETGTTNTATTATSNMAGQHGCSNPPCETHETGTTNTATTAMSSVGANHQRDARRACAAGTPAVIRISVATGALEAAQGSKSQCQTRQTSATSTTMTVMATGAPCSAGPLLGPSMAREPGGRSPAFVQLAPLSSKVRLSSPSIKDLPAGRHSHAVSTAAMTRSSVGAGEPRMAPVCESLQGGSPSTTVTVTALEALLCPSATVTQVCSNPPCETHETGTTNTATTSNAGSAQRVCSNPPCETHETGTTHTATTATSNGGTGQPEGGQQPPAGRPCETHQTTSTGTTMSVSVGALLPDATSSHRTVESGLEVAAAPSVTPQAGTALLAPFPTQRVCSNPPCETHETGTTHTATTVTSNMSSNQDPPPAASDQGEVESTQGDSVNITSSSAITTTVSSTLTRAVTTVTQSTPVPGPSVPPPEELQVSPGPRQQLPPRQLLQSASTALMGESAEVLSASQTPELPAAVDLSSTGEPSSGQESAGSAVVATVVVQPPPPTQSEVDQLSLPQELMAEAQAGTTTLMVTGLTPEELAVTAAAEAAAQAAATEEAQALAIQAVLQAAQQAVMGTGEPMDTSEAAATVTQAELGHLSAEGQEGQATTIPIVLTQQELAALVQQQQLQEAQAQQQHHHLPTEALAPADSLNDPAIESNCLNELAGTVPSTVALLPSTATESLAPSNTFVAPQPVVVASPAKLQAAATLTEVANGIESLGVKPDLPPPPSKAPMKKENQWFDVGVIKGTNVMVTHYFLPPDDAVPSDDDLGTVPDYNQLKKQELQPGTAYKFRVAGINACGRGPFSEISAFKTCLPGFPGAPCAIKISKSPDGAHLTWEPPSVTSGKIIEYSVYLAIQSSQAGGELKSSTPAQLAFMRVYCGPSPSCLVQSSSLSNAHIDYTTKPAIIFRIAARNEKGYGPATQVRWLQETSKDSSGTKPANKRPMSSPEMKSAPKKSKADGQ
UniProt Q4ZG55: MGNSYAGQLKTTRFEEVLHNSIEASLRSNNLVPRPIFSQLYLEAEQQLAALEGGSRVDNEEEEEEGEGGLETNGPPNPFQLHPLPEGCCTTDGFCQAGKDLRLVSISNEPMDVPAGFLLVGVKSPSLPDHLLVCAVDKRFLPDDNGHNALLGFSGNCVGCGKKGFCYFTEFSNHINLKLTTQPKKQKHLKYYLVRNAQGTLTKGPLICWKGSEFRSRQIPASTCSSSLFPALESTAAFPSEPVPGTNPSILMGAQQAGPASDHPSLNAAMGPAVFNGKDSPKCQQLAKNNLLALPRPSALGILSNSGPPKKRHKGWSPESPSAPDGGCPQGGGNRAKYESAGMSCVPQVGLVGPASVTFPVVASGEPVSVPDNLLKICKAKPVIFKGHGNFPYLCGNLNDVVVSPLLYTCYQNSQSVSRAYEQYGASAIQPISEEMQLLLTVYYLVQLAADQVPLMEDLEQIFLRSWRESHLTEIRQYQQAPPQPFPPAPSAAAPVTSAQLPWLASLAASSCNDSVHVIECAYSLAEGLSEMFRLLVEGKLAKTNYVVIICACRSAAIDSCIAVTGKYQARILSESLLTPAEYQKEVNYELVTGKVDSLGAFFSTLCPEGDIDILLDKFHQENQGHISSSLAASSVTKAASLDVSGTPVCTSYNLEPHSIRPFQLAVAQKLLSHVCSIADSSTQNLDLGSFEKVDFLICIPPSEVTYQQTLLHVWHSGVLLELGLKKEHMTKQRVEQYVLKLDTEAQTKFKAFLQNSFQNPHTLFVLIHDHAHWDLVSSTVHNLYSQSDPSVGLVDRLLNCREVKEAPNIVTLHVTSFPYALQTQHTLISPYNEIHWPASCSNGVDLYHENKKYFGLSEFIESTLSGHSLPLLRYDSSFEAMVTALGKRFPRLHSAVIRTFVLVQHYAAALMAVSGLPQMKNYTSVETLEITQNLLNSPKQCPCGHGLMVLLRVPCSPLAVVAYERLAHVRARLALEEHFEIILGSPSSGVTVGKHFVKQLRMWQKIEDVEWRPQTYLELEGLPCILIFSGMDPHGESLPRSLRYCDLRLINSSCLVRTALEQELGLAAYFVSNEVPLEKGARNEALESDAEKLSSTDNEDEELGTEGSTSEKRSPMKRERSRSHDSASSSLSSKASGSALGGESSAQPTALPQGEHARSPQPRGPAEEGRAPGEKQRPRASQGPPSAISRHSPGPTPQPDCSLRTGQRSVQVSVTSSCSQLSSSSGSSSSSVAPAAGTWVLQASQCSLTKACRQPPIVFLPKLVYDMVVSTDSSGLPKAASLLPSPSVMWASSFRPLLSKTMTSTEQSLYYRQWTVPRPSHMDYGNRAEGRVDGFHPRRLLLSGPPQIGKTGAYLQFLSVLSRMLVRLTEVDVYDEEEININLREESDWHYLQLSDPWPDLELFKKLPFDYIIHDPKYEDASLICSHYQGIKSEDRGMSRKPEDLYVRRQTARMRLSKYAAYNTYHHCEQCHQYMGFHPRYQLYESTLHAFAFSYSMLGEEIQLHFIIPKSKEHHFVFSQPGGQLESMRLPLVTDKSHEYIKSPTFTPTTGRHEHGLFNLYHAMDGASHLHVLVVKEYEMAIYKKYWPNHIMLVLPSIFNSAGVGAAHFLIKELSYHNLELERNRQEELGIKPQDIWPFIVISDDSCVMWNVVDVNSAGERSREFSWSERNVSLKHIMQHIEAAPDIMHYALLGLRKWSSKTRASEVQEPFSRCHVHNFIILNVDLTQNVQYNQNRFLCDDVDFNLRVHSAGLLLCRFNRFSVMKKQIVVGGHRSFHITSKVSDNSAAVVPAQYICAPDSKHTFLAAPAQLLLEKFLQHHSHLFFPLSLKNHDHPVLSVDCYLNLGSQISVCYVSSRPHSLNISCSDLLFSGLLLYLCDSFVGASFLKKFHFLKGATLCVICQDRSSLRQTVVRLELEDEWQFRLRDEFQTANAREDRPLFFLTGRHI
UniProt P15170, whole entry, looked up: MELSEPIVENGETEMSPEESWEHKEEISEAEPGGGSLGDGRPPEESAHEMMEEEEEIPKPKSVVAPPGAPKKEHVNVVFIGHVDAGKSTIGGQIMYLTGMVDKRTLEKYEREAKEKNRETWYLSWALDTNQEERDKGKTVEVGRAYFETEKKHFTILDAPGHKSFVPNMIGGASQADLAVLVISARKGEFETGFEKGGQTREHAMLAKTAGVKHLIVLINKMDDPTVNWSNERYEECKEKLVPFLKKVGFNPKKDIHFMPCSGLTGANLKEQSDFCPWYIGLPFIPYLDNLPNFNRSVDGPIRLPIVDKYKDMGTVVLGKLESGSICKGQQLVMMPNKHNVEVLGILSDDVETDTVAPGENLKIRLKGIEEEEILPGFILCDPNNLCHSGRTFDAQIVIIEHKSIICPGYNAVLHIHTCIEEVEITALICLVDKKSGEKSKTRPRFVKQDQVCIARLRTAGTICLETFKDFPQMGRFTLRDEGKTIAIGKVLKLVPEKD
UniProt Q00403, whole entry, looked up: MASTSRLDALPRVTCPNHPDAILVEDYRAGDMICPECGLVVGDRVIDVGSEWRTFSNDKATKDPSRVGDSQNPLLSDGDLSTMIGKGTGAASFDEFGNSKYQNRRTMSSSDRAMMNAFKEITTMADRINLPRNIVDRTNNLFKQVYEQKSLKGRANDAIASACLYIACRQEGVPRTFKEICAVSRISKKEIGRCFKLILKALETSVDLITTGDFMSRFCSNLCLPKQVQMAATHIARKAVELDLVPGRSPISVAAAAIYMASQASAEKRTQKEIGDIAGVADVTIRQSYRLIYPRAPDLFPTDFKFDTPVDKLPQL
UniProt O15488: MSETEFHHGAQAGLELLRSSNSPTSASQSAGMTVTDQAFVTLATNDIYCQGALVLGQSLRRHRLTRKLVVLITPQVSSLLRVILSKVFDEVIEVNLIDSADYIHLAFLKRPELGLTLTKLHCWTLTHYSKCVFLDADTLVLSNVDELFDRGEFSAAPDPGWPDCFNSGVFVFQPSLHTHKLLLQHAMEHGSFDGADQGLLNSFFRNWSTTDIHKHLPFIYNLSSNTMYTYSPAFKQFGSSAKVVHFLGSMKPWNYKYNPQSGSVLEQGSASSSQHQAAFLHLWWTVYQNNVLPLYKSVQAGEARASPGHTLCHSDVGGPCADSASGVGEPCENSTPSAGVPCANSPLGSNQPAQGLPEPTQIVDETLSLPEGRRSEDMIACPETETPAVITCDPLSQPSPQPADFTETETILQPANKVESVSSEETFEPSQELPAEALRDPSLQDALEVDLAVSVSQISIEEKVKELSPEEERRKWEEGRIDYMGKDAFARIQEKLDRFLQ

What was measured:
Assay in all cases: log2 fold change, soluble protein after heating vs DMSO (PISA); higher = thermal stabilisation; K562 lysate, 10 uM; active = over 0.2 and 3.5 SD of the protein, either way, in both replicates (recomputed)
[1] = compound: CN1CC[C@H](c2c(O)cc(O)c3c(=O)cc(-c4ccccc4Cl)oc23)[C@H](O)C1 [alvocidib]
Method in brief: (§1)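 K562 pellets were dounce-homogenised in PBS pH 7.4 with 1 mM MgCl2, and the crude extract at 1 mg/mL protein was treated with 10 μM compound for 30 min. Aliquots were heated for 3 min across 48°C-58°C, pooled, and brought to 0.5% NP-40 at 4°C; soluble protein was the supernatant after 21,000xg for 90 min. Soluble protein was quantified by TMTpro 16plex LC-MS/MS with channel sums equalised, and reported as log2 fold change in thermal stability against DMSO controls, with values from duplicates.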

[2] = compound: CN1CCc2c(c3ccccc3n2Cc2ccc(C(=O)NO)cc2)C1 [Tubastatin A]
Method in brief: as §1

[3] = compound: CNC(=O)C1=CC=CC=C1NC2=NC(=NC=C2Cl)NC3=C(C=C(C=C3)N4CCOCC4)OC
Method in brief: as §1

[4] = compound: CNC(=O)c1ccc(Nc2ncc(C(F)(F)F)c(NCc3nccnc3N(C)S(C)(=O)=O)n2)cc1 [defactinib]
Method in brief: as §1

[5] = compound: CNc1nc(-c2ccc3c(N)n[nH]c3c2)cc(N2C[C@@H](C(=O)NC3CCCCC3)CC[C@H]2C)n1
Method in brief: as §1

[6] = compound: COC(=O)N[C@@H](C)CNc1nccc(-c2cn(C(C)C)nc2-c2cc(Cl)cc(NS(C)(=O)=O)c2F)n1 [encorafenib]
Method in brief: as §1

[7] = compound: COC(=O)[C@H](CCSC)NC(=O)C1=C(C=C(C=C1)NC[C@H](CS)N)C2=CC=CC=C2
Method in brief: as §1

[8] = compound: COc1cc(Nc2ncc3c(n2)-c2ccc(Cl)cc2C(c2c(F)cccc2OC)=NC3)ccc1C(=O)O [alisertib]
Method in brief: as §1

[9] = compound: COc1cc2nc(-c3cc(F)ccc3O)nc(N[C@@H]3CNC[C@H]3C(C)(C)O)c2cc1OC
Method in brief: as §1

[10] = compound: COc1cc2ncnc(Nc3ccc(F)c(Cl)c3)c2cc1OCCCN1CCOCC1 [gefitinib]
Method in brief: as §1

Measured: log2 fold change

HCCS (UniProt P53701)
inactive: [1] 0.001 | [2] -0.032 | [3] -0.033 | [4] -0.015 | [5] -0.017 | [6] -0.02 | [7] 0 | [8] 0.031 | [9] -0.045 | [10] 0.04

HAL (UniProt P42357)
inactive: [1] 0.13 | [2] 0.169 | [3] -0.107 | [5] -0.226 | [6] -0.121 | [7] 0.301 | [9] -0.032

HBZ, A0A494C057
inactive: [1] 0.045 | [2] 0.007 | [4] -0.045 | [8] 0.005 | [9] 0.034 | [10] -0.127

H3-3A (UniProt P84243)
inactive: [1] 0.021 | [3] 0.063 | [4] -0.04 | [6] 0.132 | [7] -0.034 | [9] -0.032

HAGH isoform 2 (UniProt Q16775)
inactive: [2] 0.147 | [3] 0.124 | [5] 0.1 | [9] -0.244

HACD2 (UniProt Q6Y1H2)
inactive: [2] -0.205 | [3] -0.074 | [9] 0.259

HBD (UniProt E9PEW8)
inactive: [1] -0.006 | [4] -0.006 | [9] 0.001

GRN (UniProt P28799)
inactive: [1] -0.016 | [2] 0.093 | [3] 0.034 | [5] -0.015 | [6] 0.107 | [7] -0.103 | [9] 0.178

HDAC3 (UniProt E7ESJ6)
inactive: [9] -0.005

HDAC7 isoform 5 (UniProt Q8WUI4)
inactive: [1] -0.013 | [3] 0.052 | [4] -0.013 | [5] 0.079 | [6] 0.034 | [7] -0.025 | [8] -0.029 | [9] -0.019 | [10] 0.021

GPSM3 (UniProt Q9Y4H4)
inactive: [1] -0.021 | [2] 0.148 | [3] 0.046 | [5] -0.068 | [8] 0.345 | [9] 0.166 | [10] 0.036

GRK6 isoform 2 (UniProt P43250)
inactive: [1] -0.05 | [2] 0.074 | [3] 0.007 | [4] 0.034 | [5] 0.148 | [6] -0.082 | [7] 0.043 | [8] -0.04 | [9] -0.015 | [10] 0.064

H1-0 (UniProt P07305)
inactive: [5] 0.034

GYPA (UniProt P02724)
inactive: [1] 0.311 | [2] 0.068 | [3] 0.005 | [4] 0.063 | [5] 0.207 | [6] -0.004 | [7] -0.015 | [9] 0.06

HDAC5 isoform 3 (UniProt Q9UQL6)
inactive: [1] -0.005 | [2] -0.043 | [3] 0.043 | [4] -0.093 | [5] 0.165 | [6] 0.053 | [7] 0.012 | [8] -0.042 | [9] -0.067 | [10] -0.023

GSDME (UniProt O60443)
inactive: [1] -0.058 | [3] 0.07 | [5] -0.023 | [6] 0.001 | [7] 0.044 | [9] -0.022

GTF2H3 (UniProt Q13889)
inactive: [1] 0.028 | [2] -0.011 | [3] 0 | [4] 0.001 | [5] 0.07 | [6] 0.071 | [7] -0.115 | [8] 0.022 | [9] 0.008 | [10] -0.075

GRK5 (UniProt P34947)
inactive: [3] 0.066 | [4] -0.008 | [8] -0.041 | [10] 0.141

GULP1 (UniProt Q9UBP9)
inactive: [1] 0.042 | [2] -0.153 | [3] -0.057 | [4] 0.013 | [5] -0.031 | [6] 0.067 | [7] -0.161 | [8] 0.024 | [10] -0.093

GRAMD4 (UniProt Q6IC98)
inactive: [2] 0.04 | [3] 0.052 | [4] 0.037 | [5] 0.306 | [6] -0.143 | [7] 0.27 | [8] -0.336 | [9] 0.186 | [10] 0.095

GSDMD (UniProt P57764)
inactive: [2] -0.158 | [4] 0.086

GSTP1 (UniProt P09211)
inactive: [1] 0.04 | [2] -0.057 | [3] -0.017 | [4] 0.008 | [5] -0.036 | [6] -0.052 | [7] 0.061 | [8] 0.037 | [9] -0.008 | [10] 0.007

GTPBP6 (UniProt O43824)
inactive: [1] 0.046 | [4] 0.163 | [5] 0.673 | [6] -0.076 | [7] 0.235

GTPBP2 (UniProt Q9BX10)
inactive: [1] -0.001 | [2] -0.045 | [3] 0.039 | [4] 0.018 | [5] -0.037 | [6] 0.002 | [7] 0.079 | [8] 0.034 | [9] -0.07 | [10] 0.058

GRM5 (UniProt P41594)
inactive: [2] 0.069 | [3] -0.001 | [5] 0.039 | [6] 0.012 | [7] -0.066 | [8] 0.006 | [9] 0.012 | [10] -0.129

HAGHL isoform 2 (UniProt Q6PII5)
inactive: [2] 0.007 | [3] 0.015 | [4] -0.03 | [5] 0.024 | [6] 0.038 | [7] -0.049 | [8] 0.048 | [9] 0.039 | [10] 0.123

GSR isoform 5 (UniProt P00390)
inactive: [1] -0.241 | [2] 0.073 | [3] 0.079 | [4] 0.032 | [5] 0.325 | [9] 0.134

GSTO1 (UniProt Q5TA02)
inactive: [8] 0 | [9] 0.122 | [10] -0.121

GSK3B isoform 2 (UniProt P49841)
inactive: [1] 0.518 | [2] -0.077 | [3] 0.015 | [4] 0.562 | [5] 0.114 | [6] 0.425 | [7] -0.114 | [9] 0 | [10] 0.029

HCFC1 (UniProt P51610)
inactive: [1] -0.261 | [2] 0.137 | [3] 0.107 | [4] -0.134 | [8] 0.165 | [9] -0.048 | [10] -0.52

GREB1 (UniProt Q4ZG55)
inactive: [1] -0.305 | [3] -0.052 | [4] -0.089 | [6] -0.09 | [7] 0.056

GTF2H2C (UniProt Q6P1K8)
inactive: [2] -0.042 | [5] 0.083 | [6] -0.11 | [7] -0.067

H6PD (UniProt O95479)
inactive: [1] -0.026 | [2] 0.032 | [3] 0.047 | [5] -0.027 | [6] -0.134 | [7] -0.064 | [8] -0.132 | [9] 0.013 | [10] -0.168

GSPT1 isoform 2 (UniProt P15170)
inactive: [4] -0.149 | [9] 0.014

Quoted from the entries so far (2 entries):
GSR isoform 5 (UniProt P00390)
inactive: [1] -0.241 | [2] 0.073 | [3] 0.079 | [4] 0.032 | [5] 0.325 | [9] 0.134

GSTO1 (UniProt Q5TA02)
inactive: [8] 0 | [9] 0.122 | [10] -0.121

Next part.

H3-2 (UniProt Q5TEC6)
inactive: [2] 0.197 | [5] 0.251 | [6] 0.117 | [7] -0.056

GPT2 (UniProt Q8TD30)
inactive: [2] 0.079 | [3] 0.09 | [4] 0.121 | [5] 0.031 | [6] -0.171 | [7] 0.031

GTF2B (UniProt Q00403)
inactive: [1] 0.019 | [2] -0.033 | [3] 0.04 | [4] -0.009 | [5] -0.028 | [6] -0.012 | [7] -0.114 | [8] 0.05 | [9] 0.005 | [10] 0.035

GYG2 (UniProt O15488)
inactive: [2] 0.027 | [3] 0.084 | [4] -0.081 | [5] -0.007 | [6] 0.047 | [7] -0.022 | [9] 0.056
